Measurements from PubChem BioAssay AID504444 (National Center for Advancing Translational Sciences (NCATS), 2011).
Among all 360,000 compounds or so, about 7,500 (2.1%) were called active. The shares of active, inactive and inconclusive entries below differ from those in the screen. Calls come from the whole dose curve; as a rule, active = well fitted inhibition curve with a large enough effect; inconclusive = small, poorly fitted or top-dose-only effect, or effect the other way; inactive = flat fitted curve, though single readings scatter. Potencies beside an inconclusive call are fits to weak or partial responses and may not hold up.

Assay: Nrf2 qHTS screen for inhibitors; note: nearly all actives have a fitted effect of over 60% in size
Conditions: A549 ARE-Fluc reporter, luciferase luminescence, 18-24 h; activity change, negative = inhibition: at 46 µM (top of the series)
Method in brief: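 A549 ARE_Fluc cells (5000/well, 5% FBS OPTI-MEM) pre-incubated 2 h, then treated with compounds 18-24 h at 37C/5% CO2 in concentration-response. CellTiter-Fluor viability read first; BugLite luciferase luminescence after 15 min at room temperature gives Nrf2 activity.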
% is set by controls: 0 for no effect and ±100 for the full control effect; potency is the fitted concentration of half-maximal effect.

| Compound | Potency | activity change, negative = inhibition |
| --- | --- | --- |
| O=[N+]([O-])c1cccc(COc2ccc(CN3CCOCC3)cc2)c1 | inconclusive: 0.461 µM [activator, full curve] | – |
| O=C(Cn1c(=O)oc2cc(S(=O)(=O)N3CCCC3)ccc21)N1CCN(c2ccccc2)CC1 | inconclusive: 0.731 µM [falling, full curve, poor fit] | – |
| COC(=O)c1ccc(S(=O)(=O)NCCc2ccccc2OC)n1C | inconclusive: 23.1 µM [falling, partial curve, poor fit] | – |
| Cc1[nH]c2ccccc2c1/C=N/Nc1cccc(C(=O)O)c1 | inconclusive: 5.8 µM [activator, single point] | – |
| COc1ccc(NC(=O)Cc2nnc(SCC(=O)c3ccc(F)cc3)n2C)cc1 | inconclusive: 23.1 µM [activator, single point] | – |
| Cc1nn(C)c(C(=O)Nc2ccn(C34CC5CC(CC(C5)C3)C4)n2)c1[N+](=O)[O-] | inconclusive: 29.1 µM [falling, single point] | – |
| COc1ccc(CC(=O)OCc2nnc(C3COc4ccccc4O3)o2)cc1OC (stereo not given) | inconclusive: 14.6 µM [activator, partial curve, poor fit] | – |
| CCN(CCCCN1C(=O)c2ccccc2C1=O)c1ccc2c(c1)C(=O)N(C)C2=O | inconclusive: 29.1 µM [falling, single point] | – |
| O=C(NC1CCCN(Cc2ccc(Cl)cc2)C1)c1cnc2ccccn2c1=O (stereo not given) | inconclusive: 25.9 µM [falling, single point] | – |
| Cc1ccc(C(C)C)c(OCC(=O)Nc2ccc(S(=O)(=O)Nc3onc(C)c3C)cc2)c1 | – | inactive: -12.6% |
| COc1ccc(OCc2nc(N)nc(Nc3ccc(C)cc3)n2)cc1 | – | inactive: 13.5% |
| CC1CCN(c2ccc3nnc(CCC(=O)NC(C)C)n3n2)CC1 | – | inactive: -10.4% |
| O=C(Nc1ccc(Cl)cc1)Nc1nnc(-c2ccncc2)s1 | inconclusive: 25.9 µM [falling, partial curve, poor fit] | – |
| Cc1ccc(C2c3c(oc4ccccc4c3=O)C(=O)N2c2ccc(C)cn2)cc1 (stereo not given) | – | inactive: 8.64% |
| COc1cccc(N2CCN(c3nc(C)c(C)c(=O)[nH]3)CC2)c1 | inconclusive: 3.66 µM [falling, full curve, poor fit] | – |
| COc1ccccc1CNC(=O)C(CC(C)C)NS(=O)(=O)c1ccc2c(c1)oc(=O)n2C (stereo not given) | inconclusive: 2.06 µM [activator, partial curve, poor fit] | – |
| COc1ccc(CN(Cc2ccccc2)C(=O)c2ccco2)cc1COc1ccc(NC(C)=O)cc1 | inconclusive: 29.1 µM [falling, single point] | – |
| Fc1cccc(F)c1/C=N/Nc1ccccn1 | inconclusive: 3.66 µM [activator, full curve] | – |
| CCOP(=O)(OCC)c1nc(/C=C/c2ccccc2)oc1NCc1ccc(OC)cc1 | inconclusive: 16.4 µM [falling, single point] | – |
| CCC(=O)N1CCc2cc(S(=O)(=O)NCCC(=O)NCc3ccccc3Cl)ccc21 | inconclusive: 6.51 µM [activator, single point] | – |

2 compounds picked at random from those above:

| Compound | Potency | activity change, negative = inhibition |
| --- | --- | --- |
| COc1ccc(OCc2nc(N)nc(Nc3ccc(C)cc3)n2)cc1 | – | inactive: 13.5% |
| Cc1ccc(C2c3c(oc4ccccc4c3=O)C(=O)N2c2ccc(C)cn2)cc1 (stereo not given) | – | inactive: 8.64% |

Following part.

| Compound | Potency | activity change, negative = inhibition |
| --- | --- | --- |
| Cc1ccccc1-c1noc(C(C)NC(=O)c2ccco2)n1 (stereo not given) | inactive | – |
| CC(=O)Nc1cccc(CCc2nc3ccccc3[nH]2)c1 | inconclusive: 23.1 µM [activator, single point] | – |
| CCc1cc(=O)oc2cc(OCc3ccc(C(=O)O)o3)ccc12 | inconclusive: 6.51 µM [activator, full curve] | – |
| CCOC(=O)c1ccc(NC(=O)C2CCCN(c3ccc(Sc4ccc(C)cc4)nn3)C2)cc1 (stereo not given) | inconclusive: 29.1 µM [falling, single point] | – |
| CC(=O)O[C@]1(C(C)=O)CC[C@H]2[C@@H]3C=CC4=CC(=O)C=C[C@]4(C)[C@H]3CC[C@@]21C | inconclusive: 5.17 µM [falling, partial curve] | – |
| CCOc1ccccc1C1NC(c2ccc3c(c2)OCO3)=CC(c2ccccc2O)N1 (stereo not given) | – | inactive: 19.4% |
| O=C(NCc1csc(-c2cccs2)n1)C1CCCCC1 | inconclusive: 3.26 µM [activator, full curve] | – |
| COC(=O)c1ccc(-n2nnc(-c3nc(-c4ccc5c(c4)OCO5)no3)c2C)cc1 | inconclusive: 6.51 µM [activator, partial curve] | – |
| CCN(C(=O)CN(C)S(=O)(=O)c1ccc2c(c1)c(=O)n(C)c(=O)n2C)c1ccc(OC)cc1 | inconclusive: 4.11 µM [falling, full curve, poor fit] | – |
| CCOC(=O)c1cnc(-n2nc(C)cc2C)nc1NNc1nc(-c2ccccc2)cc(-c2ccccc2)n1 | active: 8.2 µM | – |
| O=[N+]([O-])c1ccc(S(=O)(=O)c2cccc(C(F)(F)F)c2)nc1 | inconclusive: 20.6 µM [falling, partial curve, poor fit] | – |
| O=C1COCCN1 | – | inactive: 12.6% |
| CCN(CC)C(=O)C1CCN(S(=O)(=O)c2ccc3c(c2)CCCN3C(=O)C2CCC2)CC1 | inconclusive: 25.9 µM [falling, partial curve, poor fit] | – |
| CC(=O)NCCNc1nc2c(S(=O)(=O)c3ccc(C)c(C)c3)nnn2c2ccc(Cl)cc12 | inconclusive: 29.1 µM [falling, single point] | – |
| Cc1cc(Br)ccc1NC(=O)CCS(=O)(=O)c1cccc2nsnc12 | – | inactive: 17.6% [at 9.27 µM] |
| O=C(CN1CCN(Cc2ccc3c(c2)OCO3)CC1)Nc1ccc2c(c1)OCO2 | inconclusive: 2.91 µM [falling, partial curve, poor fit] | – |
| COc1ccc(/C=C/c2nc(S(=O)(=O)c3ccccc3)c(N(C)C)o2)cc1 | inconclusive: 11.6 µM [falling, partial curve, poor fit] | – |
| CCc1nnc(NS(=O)(=O)c2ccc(NC(=S)NC(=O)c3ccccc3)cc2)s1 | inconclusive: 32.6 µM [falling, partial curve, poor fit] | – |
| NS(=O)(=O)c1ccc(NC(=O)N2c3ccccc3Sc3ccccc32)cc1 | inconclusive: 29.1 µM [falling, single point] | – |
| CCn1cc(S(=O)(=O)Nc2ccccc2C(F)(F)F)cn1 | inconclusive: 0.517 µM [activator, full curve, poor fit] | – |
